Results are given in words; binding and its absence hold for the method and conditions named. Binding seen in cells or lysates may run through a third protein. For part of these data: A result given as binding can be weak or reduced; the word gives no strength.
Tests used:
[1] = biological target: SH3b C3G domain fused to GST (UniProt Q13905); experiment: pull-down; GST fusion protein on Glutathione Sepharose 4B beads incubated 2 h at 4 °C with lysates (1-2 mg protein) of HGF-treated cells; Western blot; only the target purified
[2] = biological target: T1, Gab1 (mouse, mHCC1 cells) (mouse (endogenous in mHCC1)) (UniProt Q9QYY0); experiment: co-IP; immunoprecipitation of MET, Gab1 or Abl from lysates of mouse Alb-R26^Met mHCC1 cells (control or shC3G); IP buffer 50 mM Tris-HCl pH 7.5, 150 mM NaCl, 1% NP40; Western blot of C3G, MET and P-MET (Y1234/Y1235)
T1 sequence: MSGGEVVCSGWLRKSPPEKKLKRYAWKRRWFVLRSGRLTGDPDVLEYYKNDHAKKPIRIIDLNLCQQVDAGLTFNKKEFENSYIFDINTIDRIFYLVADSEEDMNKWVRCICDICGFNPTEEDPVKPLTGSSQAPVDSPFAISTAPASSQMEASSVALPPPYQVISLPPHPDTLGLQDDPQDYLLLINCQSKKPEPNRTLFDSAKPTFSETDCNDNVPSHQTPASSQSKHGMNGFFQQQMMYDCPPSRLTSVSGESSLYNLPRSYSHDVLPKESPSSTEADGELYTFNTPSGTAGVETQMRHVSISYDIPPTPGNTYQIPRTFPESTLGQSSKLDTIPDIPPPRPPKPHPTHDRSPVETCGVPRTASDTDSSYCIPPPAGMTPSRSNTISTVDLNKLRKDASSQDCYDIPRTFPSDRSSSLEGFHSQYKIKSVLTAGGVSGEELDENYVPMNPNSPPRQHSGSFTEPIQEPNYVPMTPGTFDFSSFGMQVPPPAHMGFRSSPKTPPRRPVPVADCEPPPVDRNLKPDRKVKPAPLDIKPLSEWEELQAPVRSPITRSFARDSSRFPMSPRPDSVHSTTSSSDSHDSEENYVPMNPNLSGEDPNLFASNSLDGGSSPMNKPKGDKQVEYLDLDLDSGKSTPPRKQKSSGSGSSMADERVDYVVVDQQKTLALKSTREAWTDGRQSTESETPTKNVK

Amino acid sequences for entries named in this document (tags omitted). A change or cut given only in a name is not applied to a line headed by its entry.
UniProt P12830: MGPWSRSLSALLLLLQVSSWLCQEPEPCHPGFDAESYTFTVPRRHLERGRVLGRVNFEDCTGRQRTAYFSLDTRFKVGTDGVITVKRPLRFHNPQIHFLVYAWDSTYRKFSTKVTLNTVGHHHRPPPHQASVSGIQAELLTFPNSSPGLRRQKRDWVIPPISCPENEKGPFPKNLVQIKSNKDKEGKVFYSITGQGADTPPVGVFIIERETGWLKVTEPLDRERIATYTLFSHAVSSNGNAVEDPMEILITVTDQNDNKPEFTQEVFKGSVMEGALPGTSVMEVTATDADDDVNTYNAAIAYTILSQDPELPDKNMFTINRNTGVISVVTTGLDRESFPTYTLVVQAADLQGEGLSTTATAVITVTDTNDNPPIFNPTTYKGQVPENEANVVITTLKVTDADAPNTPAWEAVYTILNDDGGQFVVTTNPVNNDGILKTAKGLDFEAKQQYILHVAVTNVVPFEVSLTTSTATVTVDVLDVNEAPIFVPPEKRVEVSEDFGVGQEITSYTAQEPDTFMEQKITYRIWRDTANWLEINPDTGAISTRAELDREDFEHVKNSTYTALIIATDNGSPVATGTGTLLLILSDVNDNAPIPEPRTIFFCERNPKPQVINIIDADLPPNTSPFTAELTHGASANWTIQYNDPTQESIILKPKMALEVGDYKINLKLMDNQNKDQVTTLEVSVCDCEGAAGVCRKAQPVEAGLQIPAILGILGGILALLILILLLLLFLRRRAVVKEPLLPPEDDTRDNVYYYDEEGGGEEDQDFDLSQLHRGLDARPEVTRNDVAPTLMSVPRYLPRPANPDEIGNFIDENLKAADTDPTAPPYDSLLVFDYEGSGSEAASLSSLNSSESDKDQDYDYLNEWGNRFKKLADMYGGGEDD
UniProt P46109: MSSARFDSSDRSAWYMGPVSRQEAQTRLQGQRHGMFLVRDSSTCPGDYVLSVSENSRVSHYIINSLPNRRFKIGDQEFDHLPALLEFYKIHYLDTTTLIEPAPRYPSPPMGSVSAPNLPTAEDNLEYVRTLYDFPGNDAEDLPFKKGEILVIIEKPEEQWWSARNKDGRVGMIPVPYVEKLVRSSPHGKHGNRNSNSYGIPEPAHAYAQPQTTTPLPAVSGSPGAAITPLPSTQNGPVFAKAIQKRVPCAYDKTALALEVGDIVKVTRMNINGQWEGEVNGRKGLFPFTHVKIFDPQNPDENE

[3] = biological target: GST bound to Crk SH3 domain; experiment: pull-down; GST fusion protein on Glutathione Sepharose 4B beads incubated 2 h at 4 °C with lysates (1-2 mg protein) of HGF-treated cells; Western blot; only the target purified
[4] = biological target: C3G-binding E-cadherin domain fused to GST (UniProt P12830); experiment: pull-down; as a3, lysates of cells not stimulated with HGF; only the target purified
[5] = biological target: C3G-binding E-cadherin domain fused to GST (UniProt P12830); experiment: pull-down; GST fusion protein on Glutathione Sepharose 4B beads incubated 2 h at 4 °C with lysates (1-2 mg protein) of HGF-treated cells; Western blot; only the target purified

CrkL (from UniProt P46109 1-303) was tested, and the binding [1] was “no binding”.

In the case of C3G (mouse, mHCC1 cells), the binding [2] is reported as “binds”.

B1: P-Gab1 (phosphorylated Gab1) (protein, UniProt Q13480 1-694)
chain: MSGGEVVCSGWLRKSPPEKKLKRYAWKRRWFVLRSGRLTGDPDVLEYYKNDHAKKPIRIIDLNLCQQVDAGLTFNKKEFENSYIFDINTIDRIFYLVADSEEEMNKWVRCICDICGFNPTEEDPVKPPGSSLQAPADLPLAINTAPPSTQADSSSATLPPPYQLINVPPHLETLGIQEDPQDYLLLINCQSKKPEPTRTHADSAKSTSSETDCNDNVPSHKNPASSQSKHGMNGFFQQQMIYDSPPSRAPSASVDSSLYNLPRSYSHDVLPKVSPSSTEADGELYVFNTPSGTSSVETQMRHVSISYDIPPTPGNTYQIPRTFPEGTLGQTSKLDTIPDIPPPRPPKPHPAHDRSPVETCSIPRTASDTDSSYCIPTAGMSPSRSNTISTVDLNKLRKDASSQDCYDIPRAFPSDRSSSLEGFHNHFKVKNVLTVGSVSSEELDENYVPMNPNSPPRQHSSSFTEPIQEANYVPMTPGTFDFSSFGMQVPPPAHMGFRSSPKTPPRRPVPVADCEPPPVDRNLKPDRKVKPAPLEIKPLPEWEELQAPVRSPITRSFARDSSRFPMSPRPDSVHSTTSSSDSHDSEENYVPMNPNLSSEDPNLFGSNSLDGGSSPMIKPKGDKQVEYLDLDLDSGKSTPPRKQKSSGSGSSVADERVDYVVVDQQKTLALKSTREAWTDGRQSTESETPAKSVK
modifications: phosphorylated (P-Gab1; site not given)
B1 was tested, and the binding [3] was “binds” and the binding [1] was “binds”.

B2: C3G (Crk SH3-domain-binding guanine-nucleotide-releasing factor) (protein, UniProt Q13905 1-1077)
chain: MDTDSQRSHLSSFTMKLMDKFHSPKIKRTPSKKGKPAEVSVKIPEKPVNKEATDRFLPEGYPLPLDLEQQAVEFMSTSAVASRSQRQKNLSWLEEKEKEVVSALRYFKTIVDKMAIDKKVLEMLPGSASKVLEAILPLVQNDPRIQHSSALSSCYSRVYQSLANLIRWSDQVMLEGVNSEDKEMVTTVKGVIKAVLDGVKELVRLTIEKQGRPSPTSPVKPSSPASKPDGPAELPLTDREVEILNKTTGMSQSTELLPDATDEEVAPPKPPLPGIRVVDNSPPPALPPKKRQSAPSPTRVAVVAPMSRATSGSSLPVGINRQDFDVDCYAQRRLSGGSHSYGGESPRLSPCSSIGKLSKSDEQLSSLDRDSGQCSRNTSCETLDHYDPDYEFLQQDLSNADQIPQQTAWNLSPLPESLGESGSPFLGPPFQLPLGGHPQPDGPLAPGQQTDTPPALPEKKRRSAASQTADGSGCRVSYERHPSQYDNISGEDLQSTAPIPSVPYAPFAAILPFQHGGSSAPVEFVGDFTAPESTGDPEKPPPLPEKKNKHMLAYMQLLEDYSEPQPSMFYQTPQNEHIYQQKNKLLMEVYGFSDSFSGVDSVQELAPPPALPPKQRQLEPPAGKDGHPRDPSAVSGVPGKDSRDGSERAPKSPDALESAQSEEEVDELSLIDHNEIMSRLTLKQEGDDGPDVRGGSGDILLVHATETDRKDLVLYCEAFLTTYRTFISPEELIKKLQYRYEKFSPFADTFKKRVSKNTFFVLVRVVDELCLVELTEEILKLLMELVFRLVCNGELSLARVLRKNILDKVDQKKLLRCATSSQPLAARGVAARPGTLHDFHSHEIAEQLTLLDAELFYKIEIPEVLLWAKEQNEEKSPNLTQFTEHFNNMSYWVRSIIMLQEKAQDRERLLLKFIKIMKHLRKLNNFNSYLAILSALDSAPIRRLEWQKQTSEGLAEYCTLIDSSSSFRAYRAALSEVEPPCIPYLGLILQDLTFVHLGNPDYIDGKVNFSKRWQQFNILDSMRCFQQAHYDMRRNDDIINFFNDFSDHLAEEALWELSLKIKPRNITRRKTDREEKT
In the case of B2, the binding [4] is reported as “no binding (only without HGF stimulation)” and the binding [5] is reported as “binds”.

Reference: article PMC7463771
